{"sequences": {"note": "By UniProt entry, the sequences of proteins in these tests, tags left out.", "UniProt O70133": "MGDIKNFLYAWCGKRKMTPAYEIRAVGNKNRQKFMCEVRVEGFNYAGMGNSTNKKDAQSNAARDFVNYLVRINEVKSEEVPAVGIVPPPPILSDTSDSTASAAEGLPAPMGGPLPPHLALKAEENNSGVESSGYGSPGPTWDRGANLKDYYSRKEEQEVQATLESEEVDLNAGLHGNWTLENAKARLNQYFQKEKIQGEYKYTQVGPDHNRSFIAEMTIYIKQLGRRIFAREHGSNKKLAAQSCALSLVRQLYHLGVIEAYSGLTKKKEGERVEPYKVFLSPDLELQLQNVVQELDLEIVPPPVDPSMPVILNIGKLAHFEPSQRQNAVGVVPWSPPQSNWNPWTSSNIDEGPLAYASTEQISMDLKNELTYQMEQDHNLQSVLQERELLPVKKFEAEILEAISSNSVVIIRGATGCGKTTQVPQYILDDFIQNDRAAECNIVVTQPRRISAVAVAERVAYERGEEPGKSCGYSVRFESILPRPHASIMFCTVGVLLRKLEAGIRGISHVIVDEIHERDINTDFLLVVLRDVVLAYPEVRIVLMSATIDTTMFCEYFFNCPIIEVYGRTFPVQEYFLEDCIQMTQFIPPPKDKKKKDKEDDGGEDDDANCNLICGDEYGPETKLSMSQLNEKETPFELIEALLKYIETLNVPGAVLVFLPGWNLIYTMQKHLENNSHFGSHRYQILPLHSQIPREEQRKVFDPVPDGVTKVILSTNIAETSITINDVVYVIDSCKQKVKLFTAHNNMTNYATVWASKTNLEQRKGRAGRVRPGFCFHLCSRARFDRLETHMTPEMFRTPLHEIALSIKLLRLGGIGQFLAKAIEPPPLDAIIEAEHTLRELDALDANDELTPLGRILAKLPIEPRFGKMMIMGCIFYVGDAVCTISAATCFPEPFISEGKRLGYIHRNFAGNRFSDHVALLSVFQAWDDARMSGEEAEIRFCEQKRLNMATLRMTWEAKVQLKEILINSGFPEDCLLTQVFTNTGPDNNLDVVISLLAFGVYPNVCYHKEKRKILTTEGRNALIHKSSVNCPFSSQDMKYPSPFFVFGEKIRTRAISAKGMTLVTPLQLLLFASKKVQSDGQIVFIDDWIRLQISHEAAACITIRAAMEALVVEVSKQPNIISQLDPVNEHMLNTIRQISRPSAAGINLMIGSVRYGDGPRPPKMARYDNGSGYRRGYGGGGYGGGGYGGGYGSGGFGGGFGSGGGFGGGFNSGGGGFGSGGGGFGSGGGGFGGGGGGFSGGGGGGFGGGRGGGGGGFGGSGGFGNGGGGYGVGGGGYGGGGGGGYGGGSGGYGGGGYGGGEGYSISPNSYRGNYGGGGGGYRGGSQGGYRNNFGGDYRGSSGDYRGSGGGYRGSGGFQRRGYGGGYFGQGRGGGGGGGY"}, "source": "paper PMC10847742", "binders": {"B1": {"name": "staufen double-stranded RNA binding protein 1 (protein, UniProt Q9Z108 1-487)", "chain": "MYKPVDPHSRMQSTYSYGMRGGAYPPRYFYPFPVPPLLYQVELSVGGQQFNGKGKMRPPVKHDAPARALRTLQSEPLPERLEVNGREAEEENLNKSEISQVFEIALKRNLPVNFEVARESGPPHMKNFVTRVSVGEFVGEGEGKSKKISKKNAARAVLEQLRRLPPLPAVERVKPRIKKKSQPTCKTAPDYGQGMNPISRLAQIQQAKKEKEPEYMLLTERGLPRRREFVMQVKVGHHTAEGVGTNKKVAKRNAAENMLEILGFKVPQAQPAKPALKSEEKTPVKKPGDGRKVTFFEPSPGDENGTSNKDEEFRMPYLSHQQLPAGILPMVPEVAQAVGVSQGHHTKDFTRAAPNPAKATVTAMIARELLYGGTSPTAETILKSNISSGHVPHGPRTRPSEQLYYLSRAQGFQVEYKDFPKNNKNECVSLINCSSQPPLVSHGIGKDVESCHDMAALNILKLLSELDQQSTEMPRTGNGPVSACGRC"}}, "molecular_target": "DExH-box helicase 9 (mouse (endogenous in hippocampus)) (UniProt O70133)", "assay": "co-IP; endogenous proteins in mouse hippocampus; Catch & Release v2.0 Reversible Immunoprecipitation System; antibodies to DHX9, STAU1 and FRMP; murine IgG or rabbit IgG as negative control", "note": "Results are given in words; binding and its absence hold for the method and conditions named. Binding seen in cells or lysates may run through a third protein."}
{"binder": "B1", "values": [{"measurement": "binding", "value": "no binding"}]}
